Test results from patent publication US20120220662A1, “PHYTOCEUTICAL COMPOSITIONS FOR PETS” (BIOKAB, S.A. DE C.V., priority 2009, published 2012).
For at least one compound, name, drawing or mass did not settle the structure.

Assay: Accelerated Oxidization Tests (anti-oxidizing ability, peroxides)
Settings: 200 ppm (extract: Nejayote 1000 ppm + 200 ppm Pure Ferulic Acid)
Description: The tests of anti-oxidizing ability of the compositions in examples 1, 2 and 3. Said anti-oxidizing ability is the ability which conveys, to a considerable extent, the phytoceutical properties of our composition.
The determination was performed by AOAC Official Method 965.33/(AOCS Method Cd 8-53) 2000 AOAC International.

With O=C(O)/C=C/c1ccc(O)cc1 [Pure Coumaric Acid, coumaric acid] the “Accelerated Oxidization Tests (peroxides)” value (Time 0 Hs) was 0.00 Meq/Kg, the “Accelerated Oxidization Tests (peroxides)” value (Time 4 Hs) was 0.00 Meq/Kg and the “Accelerated Oxidization Tests (peroxides)” value (Time 8 Hs) was 0.00 Meq/Kg. For the same compound, the “Accelerated Oxidization Tests (peroxides)” value (Time 16 Hs) was 0.00 Meq/Kg, the “Accelerated Oxidization Tests (peroxides)” value (Time 32 Hs) was 26.18 Meq/Kg and the “Accelerated Oxidization Tests (peroxides)” value (Time 40 Hs) was 46.32 Meq/Kg. For the same compound, the “Accelerated Oxidization Tests (peroxides)” value (Time 48 Hs) was 31.17 Meq/Kg, the “Accelerated Oxidization Tests (peroxides)” value (Time 56 Hs) was 1.17 Meq/Kg and the “Accelerated Oxidization Tests (peroxides)” value (Time 64 Hs) was 0.00 Meq/Kg. The “Accelerated Oxidization Tests (peroxides)” value (Time 72 Hs) was 0.00 Meq/Kg, the “Accelerated Oxidization Tests (peroxides)” value (Time 80 Hs) was 0.00 Meq/Kg and the “Accelerated Oxidization Tests (peroxides)” value (Time 88 Hs) was 0.00 Meq/Kg. For the same compound, the “Accelerated Oxidization Tests (peroxides)” value (Time 96 Hs) was 0.00 Meq/Kg, the “Accelerated Oxidization Tests (peroxides)” value (Time 104 Hs) was 0.00 Meq/Kg and the “Accelerated Oxidization Tests (peroxides)” value (Time 112 Hs) was 0.00 Meq/Kg. For the same compound, the “Accelerated Oxidization Tests (peroxides)” value (Time 120 Hs) was 0.00 Meq/Kg and the “Accelerated Oxidization Tests (peroxides)” value (Time 128 Hs) was 0.00 Meq/Kg.
